From PubChem BioAssay AID330 (DTP/NCI, 2004)
The list is a part of this screen's results and no random one: it is rich in T/C values a quarter to a half above the control, in often repeated tests (any T/C) and in doses without a T/C. Further doses and runs are listed elsewhere. T/C is the treated group as % of the vehicle group. Some doses have a count of surviving animals in place of a T/C: the source files T/C as zero there, which appears to mark a toxic dose or a test without result, not a measured value. Some survivor counts are full or nearly so, which does not show that the dose was tolerated: the source hardly ever lists a survival T/C far under the control, and the zero likely stands for such cases as well. Survivors were counted at the toxicity check, usually on the fifth day, unless a day is given; later deaths do not show. Schedule codes are those of the source, taken here to give the interval after Q, in days (D) or hours (H), and the number of doses after X. Some molecules as drawn cover several salts, stereoisomers or complexes of the source; a dose is that of the sample tested. For survival time, this PubChem deposit counts one and a half times the control or more as active, and values a quarter to a half above the control carry no call in these data; other NCI protocols may use other cut-offs. Some T/C values carry the count of animals alive at the toxicity check (mostly the fifth day); where none is given, no animal had died by that day.

Test system: P388 leukemia ip, CD2F1 mice, survival T/C
Assay: NCI In Vivo Anticancer Drug Screen. Data for tumor model P388 Leukemia (intraperitoneal) in CD2F1 (CDF1) mice
Settings: T/C endpoint: median survival time, higher T/C = longer survival
[1] = dose: 200.0 mg/kg/injection, schedule: Q01DX005 (ip), vehicle: saline with Tween-80
[2] = dose: 100.0 mg/kg/injection, schedule: Q01DX009 (ip), vehicle: saline with Tween-80
[3] = dose: 200.0 mg/kg/injection, schedule: Q01DX009 (ip), vehicle: saline with Tween-80
[4] = dose: 50.0 mg/kg/injection, schedule: Q01DX005 (ip), vehicle: Klucel (hydroxypropylcellulose) (HPC)
[5] = dose: 100.0 mg/kg/injection, schedule: Q01DX005 (ip), vehicle: Klucel (hydroxypropylcellulose) (HPC)
[6] = dose: 12.5 mg/kg/injection, schedule: Q01DX005 (ip), vehicle: Klucel (hydroxypropylcellulose) (HPC)
[7] = dose: 200.0 mg/kg/injection, schedule: Q01DX005 (ip), vehicle: saline

Q: Cc1cccc(NC(N)=S)n1 was tested. Which survivor count (dose: 200.0 mg/kg/injection, schedule: Q01DX009 (ip), vehicle: other) did it give?
A: 2 of 6

Q: Which survivor count (dose: 240.0 mg/kg/injection, schedule: Q01DX005 (ip), vehicle: Klucel (hydroxypropylcellulose) (HPC)) does the source give for COC(=O)c1c2cc(C(C)(C)C)cc-2c(N(C)C)nc(N(C)C)c1C(=O)OC here?
A: 6 of 6

Q: What does the source list for C/C=C1\C[C@@H]2C(OC)Nc3cc(O)c(OC)cc3C(=O)N2C1 (some centres undefined)?
A: T/C (dose: 0.04 mg/kg/injection, schedule: Q04DX003 (ip), vehicle: other): 133 % of control; T/C (dose: 0.07 mg/kg/injection, schedule: Q04DX003 (ip), vehicle: other): 148 % of control; survivor count (dose: 1.0 mg/kg/injection, schedule: Q04DX003 (ip), vehicle: other): 1 of 6; survivor count (dose: 2.0 mg/kg/injection, schedule: Q04DX003 (ip), vehicle: other): 1 of 6; survivor count (dose: 3.0 mg/kg/injection, schedule: Q04DX003 (ip), vehicle: other): 0 of 6; survivor count (dose: 4.0 mg/kg/injection, schedule: Q04DX003 (ip), vehicle: other): 0 of 6; survivor count (dose: 10.0 mg/kg/injection, schedule: Q04DX003 (ip), vehicle: other): 0 of 6; T/C (dose: 30.0 micrograms/kg/injection, schedule: Q01DX009 (ip), vehicle: other): 138 % of control; survivor count (dose: 1000.0 micrograms/kg/injection, schedule: Q01DX009 (ip), vehicle: other): 1 of 6

Q: COc1ccc(OC(=O)c2ccccc2)c2c1C(=O)C=CC2=O was tested. Which survivor count (dose: 12.5 mg/kg/injection, schedule: Q01DX005 (ip), vehicle: saline with Tween-80) did it give?
A: 3 of 5

Q: And the survivor count (dose: 25.0 mg/kg/injection, schedule: Q01DX005 (ip), vehicle: saline with Tween-80)?
A: 0 of 5

Q: What about the survivor count (dose: 50.0 mg/kg/injection, schedule: Q01DX005 (ip), vehicle: saline with Tween-80) of the same compound?
A: 0 of 5

Q: And the survivor count (dose: 100.0 mg/kg/injection, schedule: Q01DX005 (ip), vehicle: saline with Tween-80)?
A: 0 of 5

Q: And the survivor count [1]?
A: 0 of 5

Q: Which survivor count (dose: 400.0 mg/kg/injection, schedule: Q04DX003 (ip), vehicle: saline with Tween-80) does the source give for C=C1CC2(CCOc3ccccc32)OC1=O (centres undefined) here?
A: 0 of 6

Q: Which survivor count (dose: 12.5 mg/kg/injection, schedule: Q01DX009 (ip), vehicle: saline) does the source give for Cc1cc(OCCCC[N+](C)(C)Cc2ccc(Br)o2)c(C(C)C)cc1Cl here?
A: 3 of 6

Q: What about the survivor count (dose: 25.0 mg/kg/injection, schedule: Q01DX009 (ip), vehicle: saline) of the same compound?
A: 0 of 6

Q: Which results are given for O=C1CCC([N+](=O)[O-])C(c2ccccc2)N1 (centres undefined)?
A: survivor count [2]: 3 of 6; survivor count [3]: 4 of 6

Q: What does the source list for CCSC(C#N)C(C)=O (centres undefined)?
A: survivor count [2]: 6 of 6; survivor count [3]: 0 of 6

Q: C[C@H](N)[C@H](O)c1cccc(O)c1 was tested. Which survivor count (dose: 12.5 mg/kg/injection, schedule: Q01DX005 (ip), vehicle: saline) did it give?
A: 3 of 5

Q: Which results are given for CC(NC(=O)OCc1ccccc1)C(=O)NC(C(N)=O)C(C)C (centres undefined)?
A: survivor count [4]: 6 of 6; survivor count [5]: 6 of 6

Q: Oc1ccccc1O.[O-]c1ccccc1[O-].[O-]c1ccccc1[O-].[O]=[V+2] was tested. Which survivor count (dose: 20.0 mg/kg/injection, schedule: Q01DX009 (ip), vehicle: saline) did it give?
A: 6 of 6

Q: And the survivor count (dose: 100.0 mg/kg/injection, schedule: Q04DX003 (ip), vehicle: saline)?
A: 0 of 6

Q: And the survivor count (dose: 200.0 mg/kg/injection, schedule: Q04DX003 (ip), vehicle: saline)?
A: 0 of 6

Q: What about the survivor count (dose: 400.0 mg/kg/injection, schedule: Q04DX003 (ip), vehicle: saline) of the same compound?
A: 0 of 6

Q: Which results are given for Nc1ccc(/C=C\c2nccc3ccccc23)cc1?
A: survivor count (dose: 6.25 mg/kg/injection, schedule: Q01DX009 (ip), vehicle: saline with Tween-80): 6 of 6; survivor count (dose: 12.5 mg/kg/injection, schedule: Q01DX009 (ip), vehicle: saline with Tween-80): 6 of 6

Q: How did the T/C (dose: 6.25 mg/kg/injection, schedule: Q01DX005 (ip), vehicle: Klucel (hydroxypropylcellulose) (HPC)) turn out when C[CH2][Sn]([CH2]C)([S]c1nc(O)cc(=O)[nH]1)[S]c1nc(O)cc(=O)[nH]1 was run?
A: 138 % of control [5 of 6 alive]

Q: And the T/C [6]?
A: 125 % of control

Q: What about the survivor count [6] of the same compound?
A: 3 of 6

Q: And the survivor count [4]?
A: 0 of 6

Q: What about the survivor count [5] of the same compound?
A: 0 of 6

Q: What about the survivor count (dose: 200.0 mg/kg/injection, schedule: Q01DX005 (ip), vehicle: Klucel (hydroxypropylcellulose) (HPC)) of the same compound?
A: 0 of 6

Q: With COc1cc(NC(C)CCCN)c2ncc(Br)cc2c1 (centres undefined) as the compound, how does the survivor count (dose: 25.0 mg/kg/injection, schedule: Q01DX005 (ip), vehicle: saline) read?
A: 2 of 6

Q: What about the survivor count (dose: 50.0 mg/kg/injection, schedule: Q01DX005 (ip), vehicle: saline) of the same compound?
A: 4 of 6

Q: What about the survivor count (dose: 100.0 mg/kg/injection, schedule: Q01DX005 (ip), vehicle: saline) of the same compound?
A: 1 of 6

Q: What about the survivor count [7] of the same compound?
A: 0 of 6

Q: With Nc1ccccc1N=Cc1c(O)c2ccccc2oc1=O as the compound, how does the survivor count [1] read?
A: 4 of 6

Q: What does the source list for Oc1c(-c2ccccc2)cc(-[n+]2c(-c3ccccc3)cc(-c3ccccc3)cc2-c2ccccc2)cc1-c1ccccc1?
A: survivor count (dose: 6.0 mg/kg/injection, schedule: Q01DX009 (ip), vehicle: saline with Tween-80): 3 of 6; survivor count (dose: 50.0 mg/kg/injection, schedule: Q01DX009 (ip), vehicle: saline with Tween-80): 0 of 6; survivor count [2]: 0 of 6; survivor count [3]: 0 of 6

Q: Which survivor count (dose: 25.0 mg/kg/injection, schedule: Q01DX009 (ip), vehicle: distilled water + Tween-80) does the source give for CNCCNc1ccc(NCCNC)c2c1C(=O)c1ccccc1C2=O here?
A: 6 of 6

Q: And the survivor count (dose: 32.0 mg/kg/injection, schedule: Q01DX009 (ip), vehicle: acid diluted with saline)?
A: 8 of 8

Q: What about the survivor count (dose: 50.0 mg/kg/injection, schedule: Q01DX009 (ip), vehicle: distilled water + Tween-80) of the same compound?
A: 0 of 6

Q: And the survivor count (dose: 100.0 mg/kg/injection, schedule: Q01DX009 (ip), vehicle: distilled water + Tween-80)?
A: 0 of 6

Q: What about the survivor count (dose: 200.0 mg/kg/injection, schedule: Q01DX009 (ip), vehicle: distilled water + Tween-80) of the same compound?
A: 0 of 6

Q: Which survivor count (dose: 100.0 mg/kg/injection, schedule: Q01DX009 (ip), vehicle: other) does the source give for O=S(=O)(NCCSSCCNS(=O)(=O)c1ccccc1)c1ccccc1 here?
A: 6 of 6

Q: With CCOC(=N)N1[C@H](C)[C@H]1C as the compound, how does the survivor count (dose: 100.0 mg/kg/injection, schedule: Q04DX002 (ip), vehicle: saline) read?
A: 0 of 6

Q: What about the survivor count (dose: 200.0 mg/kg/injection, schedule: Q04DX002 (ip), vehicle: saline) of the same compound?
A: 0 of 6

Q: And the survivor count (dose: 400.0 mg/kg/injection, schedule: Q04DX002 (ip), vehicle: saline)?
A: 0 of 6

Q: How did the survivor count (dose: 200.0 mg/kg/injection, schedule: Q01DX001 (ip), vehicle: Klucel (hydroxypropylcellulose) (HPC)) turn out when O=C(NO)C1(Br)CCCCC1Br (centres undefined) was run?
A: 0 of 6

Q: And the survivor count (dose: 400.0 mg/kg/injection, schedule: Q01DX001 (ip), vehicle: Klucel (hydroxypropylcellulose) (HPC))?
A: 0 of 6

Q: For CC(=O)OC1CC2CCCCC2CC1[N+](C)(C)C (centres undefined), which survivor count [2] is on record?
A: 0 of 6

Q: What about the survivor count (dose: 100.0 mg/kg/injection, schedule: Q01DX009 (ip), vehicle: saline) of the same compound?
A: 1 of 6

Q: And the survivor count [3]?
A: 0 of 6

Q: And the survivor count (dose: 200.0 mg/kg/injection, schedule: Q01DX009 (ip), vehicle: saline)?
A: 0 of 6

Q: With c1ccc(-c2cc[n+]3c4c2ccc2c(-c5ccccc5)cc[n+](c24)CC3)cc1 as the compound, how does the survivor count (dose: 50.0 mg/kg/injection, schedule: Q01DX009 (ip), vehicle: saline) read?
A: 1 of 6

Q: Which survivor count (dose: 60.0 mg/kg/injection, schedule: Q01DX005 (ip), vehicle: saline) does the source give for CN(C)CC(CN(C)C)C(=O)/C=C/c1ccc(Cl)cc1Cl here?
A: 0 of 6

Q: What about the survivor count (dose: 120.0 mg/kg/injection, schedule: Q01DX005 (ip), vehicle: saline) of the same compound?
A: 0 of 6

Q: What about the survivor count (dose: 240.0 mg/kg/injection, schedule: Q01DX005 (ip), vehicle: saline) of the same compound?
A: 0 of 6

Q: Which survivor count (dose: 100.0 mg/kg/injection, schedule: Q01DX001 (ip), vehicle: saline with Tween-80) does the source give for N#CC(C#N)=C1Cc2ccccc2C1 here?
A: 2 of 6

Q: How did the T/C (dose: 400.0 mg/kg/injection, schedule: Q01DX009 (ip), vehicle: suspension in saline) turn out when COc1cc2ccc(=O)oc2cc1O was run?
A: 130 % of control

Q: With COc1cccc(NCCCSC)c1 as the compound, how does the survivor count [7] read?
A: 3 of 6
